PubChem BioAssay AID504804 – Drosophila RNAi Screening Center | 2011

Screen: 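dsRNAs that improve Kc cell survival under doxorubicin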 (primary screen)
System: Drosophila Kc cells
Reagents: long dsRNA against Drosophila genes, 0.5 µg dsRNA per well
Timing: 96 h (48 h knock-down, then 48 h drug)
Treatment: doxorubicin 5 µg/ml for 48 h, added 48 h after dsRNA
Measured: 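Viability measured as cellular ATP by luminescence after 48 h knock-down then 48 h doxorubicin at 5 µg/ml; unnormalised plate counts for each replicate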
Scale: raw ATP luminescence: higher = more viable cells, protection from doxorubicin
Hit rule: 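z-score of 2 or more over plate mean in both duplicates, retained only when retests and separate dsRNAs confirm the protection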
The screen tested about 19,000 reagents; this is an unselected part of those that have a named target and a result. Over the whole deposit, 47 (0.25%) got an active call. 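Signals are raw, not normalised; exact z-scores behind calls not deposited; actives needed confirmation, so some wells reaching 2 SD are inactive.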 The numbers tell different reagents against one gene apart. A plus sign joins genes that one reagent is predicted to hit.

target gene	dsRNA no.	raw ATP luminescence, replicate 1	raw ATP luminescence, replicate 2	call
SH3PX1 (SH3 and PX domain containing 1)	1	85580	67880	inactive
CG18682 (retired record)	1	61970	75970	inactive
CG18682 (retired record)	2	73030	69810	inactive
CG18585	1	1.02e5	77457	inactive
Dtwd2 + Obp84a	1	64637	64667	inactive
CG4210	1	66490	67650	inactive
CG11050	1	1.09e5	65607	inactive
stan (starry night)	1	35900	32453	inactive
stan (starry night)	2	37940	69277	inactive
CG4615	1	2.30e5	2.18e5	inactive
fd19B (forkhead domain 19B)	1	3.97e5	2.59e5	inactive
CG34337	1	55620	56760	inactive
mRpL24 (mitochondrial ribosomal protein L24)	1	1.09e5	80673	inactive
CG42663	1	2.14e5	2.23e5	inactive
NaCP60E (Na channel protein 60E)	1	87717	71260	inactive
CG8774	1	70493	26093	inactive
TwdlG (TweedleG)	1	57073	58440	inactive
CG9289	1	37423	55253	inactive
Osi13 (Osiris 13)	1	84960	53283	inactive
CG14947	1	66137	61547	inactive
dbf (doublefault)	1	41993	73467	inactive
CG30431	1	56080	60537	inactive
CG30431	2	69660	80030	inactive
CG7557	1	35430	27097	inactive
Cht4 (Chitinase 4)	1	72390	38633	inactive
GCS2beta (Glucosidase 2 beta subunit)	1	1.78e5	1.91e5	inactive
CG14106	1	65293	53263	inactive
MED19 (Mediator complex subunit 19)	1	25520	22653	inactive
Pcl (Polycomblike)	1	66807	57350	inactive
CG46491	1	64887	86150	inactive
CG13484	1	49913	41093	inactive
CR30068 (retired record)	1	1.02e5	1.08e5	inactive
rho-4 (rhomboid-4)	1	4.25e5	3.25e5	inactive
RYBP (Ring and YY1 Binding Protein)	1	68400	63677	inactive
DNAlig1 (DNA ligase 1)	1	68990	65063	inactive
PCB (Pyruvate carboxylase)	1	66273	53480	inactive
CG9380	1	30613	61843	inactive
mus304 (mutagen-sensitive 304)	1	91463	82763	inactive
qsm (quasimodo)	1	1.27e5	1.27e5	inactive
CG13113	1	47400	66780	inactive
asrij	1	41477	46943	inactive
CG31213	1	18220	18730	inactive
CG31213	2	17910	25460	inactive
swm (second mitotic wave missing)	1	83210	61707	inactive
CG10947	1	77170	75193	inactive
Prp4k (Pre-mRNA processing factor 4 kinase)	1	52640	40077	inactive
Rbp6 (RNA-binding protein 6)	1	70237	79640	inactive
Rbp6 (RNA-binding protein 6)	2	85057	93683	inactive
Rbp6 (RNA-binding protein 6)	3	53697	34350	inactive
Rbp6 (RNA-binding protein 6)	4	55550	28617	inactive
Rbp6 (RNA-binding protein 6)	5	46030	34033	inactive
CG33140	1	72900	55037	inactive
lectin-33A	1	40867	87097	inactive
E(spl)mdelta-HLH (Enhancer of split mdelta, helix-loop-helix)	1	68380	60570	inactive

No new results follow: 8 of the entries above.
target gene	dsRNA no.	raw ATP luminescence, replicate 1	raw ATP luminescence, replicate 2	call
mRpL24 (mitochondrial ribosomal protein L24)	1	1.09e5	80673	inactive
CG42663	1	2.14e5	2.23e5	inactive
NaCP60E (Na channel protein 60E)	1	87717	71260	inactive
CG8774	1	70493	26093	inactive
TwdlG (TweedleG)	1	57073	58440	inactive
CG9289	1	37423	55253	inactive
Osi13 (Osiris 13)	1	84960	53283	inactive
CG14947	1	66137	61547	inactive

Additional entries follow.
target gene	dsRNA no.	raw ATP luminescence, replicate 1	raw ATP luminescence, replicate 2	call
MAN1	1	61357	66420	inactive
hll (heimdall)	1	66633	64297	inactive
jet (jetlag)	1	1.14e5	73653	inactive
Gagr (Gag-related)	1	24537	23527	inactive
Prosalpha7 (Proteasome alpha7 subunit)	1	61127	45177	inactive
CG34166	1	1.88e5	2.20e5	inactive
CG9503	1	4.05e5	3.21e5	inactive
LManI (Lysosomal alpha-mannosidase I)	1	38490	72623	inactive
endos (endosulfine)	1	25840	19767	inactive
Fer3HCH (Ferritin 3 heavy chain homologue)	1	3.40e5	3.08e5	inactive
Hinfp (Histone H4 transcription factor)	1	42390	41380	inactive
Vm34Ca (Vitelline membrane 34Ca)	1	73423	69180	inactive
Acsx2 (Acyl-CoA synthetase X2)	1	69220	61200	inactive
f (forked)	1	1.83e5	1.82e5	inactive
f (forked)	2	2.19e5	2.36e5	inactive
f (forked)	3	2.37e5	2.44e5	inactive
RpL7A (Ribosomal protein L7A)	1	20520	24830	inactive
CG31089	1	64620	62380	inactive
CG6683	1	38593	38980	inactive
CG6686	1	89907	48590	inactive
Pi3K21B	1	92167	83977	inactive
Vti1a (Vesicle transport through interaction with t-SNAREs 1a)	1	80917	64710	inactive
CG17660	1	90167	69560	inactive
teq (Tequila)	1	73663	70590	inactive
teq (Tequila)	2	54557	73253	inactive
teq (Tequila)	3	65043	71553	inactive
Hsp68 (Heat shock protein 68)	1	73890	65180	inactive
Mip (Myoinhibiting peptide precursor)	1	27093	24327	inactive
Cpr65Ea (Cuticular protein 65Ea)	1	75870	91890	inactive
ReepB (Receptor expression enhancing protein B)	1	68107	63170	inactive
KCNQ (KCNQ potassium channel)	1	30693	92303	inactive
KCNQ (KCNQ potassium channel)	2	49847	86243	inactive
RpL10 (Ribosomal protein L10)	1	44563	38397	inactive
CheB93a (Chemosensory protein B 93a)	1	34200	41040	inactive
krz (kurtz)	1	50960	56040	inactive
CG7881	1	54543	52510	inactive
Eip63E (Ecdysone-induced protein 63E)	1	34883	34573	inactive
CG15186	1	66780	57670	inactive
Gal (beta galactosidase)	1	20623	25200	inactive
FANCI (Fanconi anemia complementation group I)	1	46470	78213	inactive
skl (sickle)	1	61683	51280	inactive
CG6052	1	67447	58673	inactive
CG42588	1	75870	85600	inactive
rin (rasputin)	1	36110	28510	inactive
eIF3e (eukaryotic translation initiation factor 3 subunit e)	1	46247	44000	inactive
CG30192	1	76837	52750	inactive
Tailor	1	72280	62387	inactive
Hsp60C (Heat shock protein 60C)	1	30977	27773	inactive
5-HT2A (5-hydroxytryptamine (serotonin) receptor 2A)	1	18267	23867	inactive
CG10013	1	55103	26500	inactive
CG5188	1	38963	71967	inactive
fid (fire dancer)	1	84970	67620	inactive
fid (fire dancer)	2	81770	70730	inactive
